PubChem BioAssay (NCATS)
The inconclusive results got no clear call from the source; some entries with a clear call stand among them for comparison. For some of these results: Potencies of inconclusive entries are doubtful fits and often do not repeat. The source made the active and inactive calls. The call rests on the fitted dose curve; in most records, active means well fitted curve in the direction sought with a large enough effect; inconclusive means small, poorly fitted or top-dose-only effect, or another doubt; inactive means no such curve, though single readings can be large; an effect the other way counts as inactive or inconclusive.

Columns and labels:
[1] = Quantitative High-Throughput drug screen in 47 multiple myeloma cell lines against the NCATS MIPE library collection: JIM1_ECACC cell viability assay (AID 1918964; further: potency means the concentration at half of the fitted maximal effect); conditions: JIM1 myeloma viability, CellTiter-Glo ATP luminescence, 48 h; viability (% of DMSO): at 45.8 µM (top of the series)
In short: (§1)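 We plated 500 myeloma cells per well, pinned in MIPE 4.0 compounds, and incubated for 48 hours at 37C. ATP was then quantified with CellTiter-Glo, with DMSO and media-only wells defining 100% and 0%.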

[2] = Quantitative High-Throughput drug screen in 47 multiple myeloma cell lines against the NCATS MIPE library collection: INA6_PLB cell viability assay (AID 1918965; further: nearly all actives have a fitted effect of over 55% in size; further: potency means the concentration at half of the fitted maximal effect); conditions: INA6 myeloma viability, CellTiter-Glo ATP luminescence, 48 h; viability (% of control): at 45.8 µM (top of the series)
In short: (§2)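 Myeloma cells (500 per well) were exposed to MIPE 4.0 compounds by pin transfer and incubated 48 hours at 37C, 5% CO2. Viability was read as ATP by CellTiter-Glo luminescence, normalised to DMSO (100%) and media-only (0%) wells.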

[3] = Quantitative High-Throughput drug screen in 47 multiple myeloma cell lines against the NCATS MIPE library collection: JJN3_DSMZ cell viability assay (AID 1918966; further: potency means the concentration at half of the fitted maximal effect; nearly all actives have a fitted effect of over 50% in size); conditions: JJN3 myeloma cells viability, CellTiter-Glo ATP, 48 h; series mostly up to 45.8 µM
In short: as §1

[4] = Quantitative High-Throughput drug screen in 47 multiple myeloma cell lines against the NCATS MIPE library collection: H1112_PLB cell viability assay (AID 1918967; further: nearly all actives have a fitted effect of over 30% in size; further: potency means the concentration at half of the fitted maximal effect); conditions: H1112 myeloma cells viability, ATP luminescence, 48 h; viability: at 45.8 µM (top of the series)
In short: as §1

[5] = Quantitative High-Throughput drug screen in 47 multiple myeloma cell lines against the NCATS MIPE library collection: KMS27_JCRB cell viability assay (AID 1918970); conditions: KMS27 myeloma cells, CellTiter-Glo ATP viability, 48 h; viability (% of DMSO): at 45.8 µM (top of the series); further: nearly all actives have a fitted effect of over 30% in size
In short: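 Luminescent ATP read-out (CellTiter-Glo, 5 min at room temperature) after 48 h compound exposure of 500 KMS27_JCRB cells per well; DMSO wells define full viability and media-only wells zero.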

[6] = Quantitative High-Throughput drug screen in 47 multiple myeloma cell lines against the NCATS MIPE library collection: KMS12BM_JCRB cell viability assay (AID 1918971); further: nearly all actives have a fitted effect of over 35% in size; further: potency means the concentration at half of the fitted maximal effect
In short: (§3)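 Viability readout: CellTiter-Glo luminescence following 5 min room-temperature incubation with reagent. Prior exposure: 48 h, 37C, humidified 5% CO2, 500 cells per well.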

[7] = Quantitative High-Throughput drug screen in 47 multiple myeloma cell lines against the NCATS MIPE library collection: KMS20_JCRB cell viability assay (AID 1918973); conditions: CellTiter-Glo ATP, 48 h; viability (% of DMSO): at 45.8 µM (top of the series); further: nearly all actives have a fitted effect of over 45% in size; further: potency means the concentration at half of the fitted maximal effect
In short: as §1

[8] = Quantitative High-Throughput drug screen in 47 multiple myeloma cell lines against the NCATS MIPE library collection: KMS21BM_JCRB cell viability assay (AID 1918974); conditions: ATP luminescence, 48 h; viability: at 45.8 µM (top of the series) unless noted; further: potency means the concentration at half of the fitted maximal effect
In short: as §1

[9] = Quantitative High-Throughput drug screen in 47 multiple myeloma cell lines against the NCATS MIPE library collection: KMS26_JCRB cell viability assay (AID 1918975); conditions: KMS26 myeloma cells viability, CellTiter-Glo ATP, 48 h; viability (% of DMSO): at 45.8 µM (top of the series); further: nearly all actives have a fitted effect of over 45% in size; further: potency means the concentration at half of the fitted maximal effect
In short: as §3

[10] = Quantitative High-Throughput drug screen in 47 multiple myeloma cell lines against the NCATS MIPE library collection: MMM1_PLB cell viability assay (AID 1918976); further: potency means the concentration at half of the fitted maximal effect; nearly all actives have a fitted effect of over 35% in size
In short: (§4)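 Myeloma cells (500/well) treated with MIPE 4.0 compounds for 48 h at 37 °C, 5% CO2. Viability read as ATP via CellTiter-Glo luminescence after 5 min at RT; DMSO-only wells = 100%, media-only = 0% viability.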

[11] = Quantitative High-Throughput drug screen in 47 multiple myeloma cell lines against the NCATS MIPE library collection: MOLP8_DSMZ cell viability assay (AID 1918977); conditions: MOLP8 myeloma viability, CellTiter-Glo ATP luminescence, 48 h; viability (% of control): at 45.8 µM (top of the series); further: nearly all actives have a fitted effect of over 45% in size; further: potency means the concentration at half of the fitted maximal effect
In short: as §4

[12] = Quantitative High-Throughput drug screen in 47 multiple myeloma cell lines against the NCATS MIPE library collection: NCIH929_DSMZ cell viability assay (AID 1918978); further: potency means the concentration at half of the fitted maximal effect; nearly all actives have a fitted effect of over 35% in size
In short: as §4

[13] = Quantitative High-Throughput drug screen in 47 multiple myeloma cell lines against the NCATS MIPE library collection: OCIMY1_PLB cell viability assay (AID 1918979); further: nearly all actives have a fitted effect of over 35% in size; further: potency means the concentration at half of the fitted maximal effect
In short: as §4

[14] = Quantitative High-Throughput drug screen in 47 multiple myeloma cell lines against the NCATS MIPE library collection: LP1_DSMZ cell viability assay (AID 1918982); further: nearly all actives have a fitted effect of over 35% in size; further: potency means the concentration at half of the fitted maximal effect
In short: as §4

[15] = Quantitative High-Throughput drug screen in 47 multiple myeloma cell lines against the NCATS MIPE library collection: KMS28PE_JCRB cell viability assay (AID 1918983); further: nearly all actives have a fitted effect of over 35% in size; further: potency means the concentration at half of the fitted maximal effect
In short: as §4

[16] = Quantitative High-Throughput drug screen in 47 multiple myeloma cell lines against the NCATS MIPE library collection: Karpas25_ECACC cell viability assay (AID 1918968); conditions: Karpas25 myeloma viability, CellTiter-Glo ATP, 48 h; viability (% of control): at 45.8 µM (top of the series)
In short: as §1

[17] = Quantitative High-Throughput drug screen in 47 multiple myeloma cell lines against the NCATS MIPE library collection: KMS12PE_JCRB cell viability assay (AID 1918972); conditions: KMS12PE myeloma viability, CellTiter-Glo ATP, 48 h; viability: at 45.8 µM (top of the series); further: nearly all actives have a fitted effect of over 30% in size; further: potency means the concentration at half of the fitted maximal effect
In short: as §2

[18] = Quantitative High-Throughput drug screen in 47 multiple myeloma cell lines against the NCATS MIPE library collection: MM1S_ATCC cell viability assay (AID 1918980); further: potency means the concentration at half of the fitted maximal effect; nearly all actives have a fitted effect of over 45% in size
In short: as §4

[19] = Quantitative High-Throughput drug screen in 47 multiple myeloma cell lines against the NCATS MIPE library collection: MM1R_ATCC cell viability assay (AID 1918981)
In short: as §4

Measured: Potency

O=C(O)C1=CO[C@@H](O[C@@H]2O[C@H](CO)[C@H](O)[C@H](O)[C@H]2O)[C@@H]2C(CO)=CC[C@H]12
inactive: [4] | [5] | [7] | [11] | [13] | [14] | [15]
inconclusive: [1] 13.2 µM [cytotoxic, partial curve, poor fit] | [2] 0.935 µM [cytotoxic, full curve, poor fit] | [3] 0.0418 µM [cytotoxic, full curve, poor fit] | [6] 13.2 µM [cytotoxic, partial curve, poor fit] | [8] 20.9 µM [rising, partial curve] | [9] 10.5 µM [cytotoxic, partial curve, poor fit] | [10] 11.8 µM [cytotoxic, partial curve, poor fit] | [12] 2.96 µM [cytotoxic, partial curve, poor fit]

CN1[C@H]2CC[C@H]1CC(OC(=O)c1c[nH]c3ccccc13)C2 (some centres not stated)
inactive: [1] | [2] | [6] | [13]
inconclusive: [3] 8.33 µM [cytotoxic, full curve, poor fit] | [4] 14.8 µM [cytotoxic, partial curve] | [16] 14.8 µM [cytotoxic, partial curve] | [8] 7.43 µM [rising, full curve]
active: [7] 14.8 µM | [10] 1.32 µM | [11] 2.35 µM

Cc1onc(-c2ccccc2)c1C(=O)N[C@@H]1C(=O)N2[C@@H](C(=O)O)C(C)(C)S[C@@H]12
inactive: [1] | [4] | [6] | [17] | [8] | [9]
inconclusive: [2] 0.001 µM | [3] 3.32 µM [cytotoxic, partial curve, poor fit] | [7] 13.2 µM [cytotoxic, partial curve, poor fit] | [10] 9.35 µM [cytotoxic, partial curve, poor fit] | [11] 0.001 µM [cytotoxic] | [13] 0.001 µM [cytotoxic] | [18] 16.6 µM [cytotoxic, partial curve, poor fit] | [14] 0.0012 µM [cytotoxic, full curve, poor fit] | [15] 0.0021 µM [cytotoxic, full curve, poor fit]

CCNc1cc(NC2CCC(O)CC2)nc(Nc2ccc3c(ccn3Cc3ccccc3)c2)n1 (configuration not stated)
inconclusive: [1] 29.6 µM [cytotoxic, single point] | [3] 33.2 µM [cytotoxic, partial curve, poor fit] | [6] 37.2 µM [cytotoxic, single point] | [17] 11.8 µM [cytotoxic, partial curve] | [9] 37.2 µM [cytotoxic, single point] | [10] 33.2 µM [cytotoxic, single point] | [11] 8.33 µM [cytotoxic, full curve, poor fit] | [12] 33.2 µM [cytotoxic, single point] | [13] 33.2 µM [cytotoxic, single point] | [18] 37.2 µM [cytotoxic, single point] | [19] 33.2 µM [cytotoxic, single point]
active: [2] 16.6 µM | [4] 18.7 µM | [7] 37.2 µM

N=C(N=C(N)N)N1CCOCC1
inactive: [1] | [2] | [4] | [7] | [14]
inconclusive: [3] 0.0026 µM [cytotoxic, full curve, poor fit] | [16] 8.33 µM [cytotoxic, partial curve, poor fit] | [6] 9.35 µM [cytotoxic, partial curve, poor fit] | [8] 2.96 µM [rising, full curve, poor fit] | [9] 0.0418 µM [rising, full curve, poor fit] | [11] 0.0118 µM [cytotoxic, full curve, poor fit] | [19] 0.0372 µM [cytotoxic, full curve, poor fit]
